Results on two substances are retold here after PMC4605776.

Protein sequences, listed by entry. Tags and fused reporters are not part of them. Lines headed by an entry give the natural chain unless they say otherwise; changes in a name come on top.
UniProt P70340: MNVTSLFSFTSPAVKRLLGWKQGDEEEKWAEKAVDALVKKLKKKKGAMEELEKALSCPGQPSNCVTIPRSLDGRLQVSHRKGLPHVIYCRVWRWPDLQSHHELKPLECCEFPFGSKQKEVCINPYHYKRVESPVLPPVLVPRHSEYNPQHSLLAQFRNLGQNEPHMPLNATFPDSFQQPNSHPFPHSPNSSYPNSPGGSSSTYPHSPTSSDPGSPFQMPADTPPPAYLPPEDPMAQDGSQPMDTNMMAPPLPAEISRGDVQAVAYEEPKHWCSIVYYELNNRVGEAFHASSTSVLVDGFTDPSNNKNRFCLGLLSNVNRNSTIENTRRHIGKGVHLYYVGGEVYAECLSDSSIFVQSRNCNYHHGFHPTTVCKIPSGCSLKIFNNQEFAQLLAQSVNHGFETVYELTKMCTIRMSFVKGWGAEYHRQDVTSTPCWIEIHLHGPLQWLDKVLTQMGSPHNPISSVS
UniProt E9Q616: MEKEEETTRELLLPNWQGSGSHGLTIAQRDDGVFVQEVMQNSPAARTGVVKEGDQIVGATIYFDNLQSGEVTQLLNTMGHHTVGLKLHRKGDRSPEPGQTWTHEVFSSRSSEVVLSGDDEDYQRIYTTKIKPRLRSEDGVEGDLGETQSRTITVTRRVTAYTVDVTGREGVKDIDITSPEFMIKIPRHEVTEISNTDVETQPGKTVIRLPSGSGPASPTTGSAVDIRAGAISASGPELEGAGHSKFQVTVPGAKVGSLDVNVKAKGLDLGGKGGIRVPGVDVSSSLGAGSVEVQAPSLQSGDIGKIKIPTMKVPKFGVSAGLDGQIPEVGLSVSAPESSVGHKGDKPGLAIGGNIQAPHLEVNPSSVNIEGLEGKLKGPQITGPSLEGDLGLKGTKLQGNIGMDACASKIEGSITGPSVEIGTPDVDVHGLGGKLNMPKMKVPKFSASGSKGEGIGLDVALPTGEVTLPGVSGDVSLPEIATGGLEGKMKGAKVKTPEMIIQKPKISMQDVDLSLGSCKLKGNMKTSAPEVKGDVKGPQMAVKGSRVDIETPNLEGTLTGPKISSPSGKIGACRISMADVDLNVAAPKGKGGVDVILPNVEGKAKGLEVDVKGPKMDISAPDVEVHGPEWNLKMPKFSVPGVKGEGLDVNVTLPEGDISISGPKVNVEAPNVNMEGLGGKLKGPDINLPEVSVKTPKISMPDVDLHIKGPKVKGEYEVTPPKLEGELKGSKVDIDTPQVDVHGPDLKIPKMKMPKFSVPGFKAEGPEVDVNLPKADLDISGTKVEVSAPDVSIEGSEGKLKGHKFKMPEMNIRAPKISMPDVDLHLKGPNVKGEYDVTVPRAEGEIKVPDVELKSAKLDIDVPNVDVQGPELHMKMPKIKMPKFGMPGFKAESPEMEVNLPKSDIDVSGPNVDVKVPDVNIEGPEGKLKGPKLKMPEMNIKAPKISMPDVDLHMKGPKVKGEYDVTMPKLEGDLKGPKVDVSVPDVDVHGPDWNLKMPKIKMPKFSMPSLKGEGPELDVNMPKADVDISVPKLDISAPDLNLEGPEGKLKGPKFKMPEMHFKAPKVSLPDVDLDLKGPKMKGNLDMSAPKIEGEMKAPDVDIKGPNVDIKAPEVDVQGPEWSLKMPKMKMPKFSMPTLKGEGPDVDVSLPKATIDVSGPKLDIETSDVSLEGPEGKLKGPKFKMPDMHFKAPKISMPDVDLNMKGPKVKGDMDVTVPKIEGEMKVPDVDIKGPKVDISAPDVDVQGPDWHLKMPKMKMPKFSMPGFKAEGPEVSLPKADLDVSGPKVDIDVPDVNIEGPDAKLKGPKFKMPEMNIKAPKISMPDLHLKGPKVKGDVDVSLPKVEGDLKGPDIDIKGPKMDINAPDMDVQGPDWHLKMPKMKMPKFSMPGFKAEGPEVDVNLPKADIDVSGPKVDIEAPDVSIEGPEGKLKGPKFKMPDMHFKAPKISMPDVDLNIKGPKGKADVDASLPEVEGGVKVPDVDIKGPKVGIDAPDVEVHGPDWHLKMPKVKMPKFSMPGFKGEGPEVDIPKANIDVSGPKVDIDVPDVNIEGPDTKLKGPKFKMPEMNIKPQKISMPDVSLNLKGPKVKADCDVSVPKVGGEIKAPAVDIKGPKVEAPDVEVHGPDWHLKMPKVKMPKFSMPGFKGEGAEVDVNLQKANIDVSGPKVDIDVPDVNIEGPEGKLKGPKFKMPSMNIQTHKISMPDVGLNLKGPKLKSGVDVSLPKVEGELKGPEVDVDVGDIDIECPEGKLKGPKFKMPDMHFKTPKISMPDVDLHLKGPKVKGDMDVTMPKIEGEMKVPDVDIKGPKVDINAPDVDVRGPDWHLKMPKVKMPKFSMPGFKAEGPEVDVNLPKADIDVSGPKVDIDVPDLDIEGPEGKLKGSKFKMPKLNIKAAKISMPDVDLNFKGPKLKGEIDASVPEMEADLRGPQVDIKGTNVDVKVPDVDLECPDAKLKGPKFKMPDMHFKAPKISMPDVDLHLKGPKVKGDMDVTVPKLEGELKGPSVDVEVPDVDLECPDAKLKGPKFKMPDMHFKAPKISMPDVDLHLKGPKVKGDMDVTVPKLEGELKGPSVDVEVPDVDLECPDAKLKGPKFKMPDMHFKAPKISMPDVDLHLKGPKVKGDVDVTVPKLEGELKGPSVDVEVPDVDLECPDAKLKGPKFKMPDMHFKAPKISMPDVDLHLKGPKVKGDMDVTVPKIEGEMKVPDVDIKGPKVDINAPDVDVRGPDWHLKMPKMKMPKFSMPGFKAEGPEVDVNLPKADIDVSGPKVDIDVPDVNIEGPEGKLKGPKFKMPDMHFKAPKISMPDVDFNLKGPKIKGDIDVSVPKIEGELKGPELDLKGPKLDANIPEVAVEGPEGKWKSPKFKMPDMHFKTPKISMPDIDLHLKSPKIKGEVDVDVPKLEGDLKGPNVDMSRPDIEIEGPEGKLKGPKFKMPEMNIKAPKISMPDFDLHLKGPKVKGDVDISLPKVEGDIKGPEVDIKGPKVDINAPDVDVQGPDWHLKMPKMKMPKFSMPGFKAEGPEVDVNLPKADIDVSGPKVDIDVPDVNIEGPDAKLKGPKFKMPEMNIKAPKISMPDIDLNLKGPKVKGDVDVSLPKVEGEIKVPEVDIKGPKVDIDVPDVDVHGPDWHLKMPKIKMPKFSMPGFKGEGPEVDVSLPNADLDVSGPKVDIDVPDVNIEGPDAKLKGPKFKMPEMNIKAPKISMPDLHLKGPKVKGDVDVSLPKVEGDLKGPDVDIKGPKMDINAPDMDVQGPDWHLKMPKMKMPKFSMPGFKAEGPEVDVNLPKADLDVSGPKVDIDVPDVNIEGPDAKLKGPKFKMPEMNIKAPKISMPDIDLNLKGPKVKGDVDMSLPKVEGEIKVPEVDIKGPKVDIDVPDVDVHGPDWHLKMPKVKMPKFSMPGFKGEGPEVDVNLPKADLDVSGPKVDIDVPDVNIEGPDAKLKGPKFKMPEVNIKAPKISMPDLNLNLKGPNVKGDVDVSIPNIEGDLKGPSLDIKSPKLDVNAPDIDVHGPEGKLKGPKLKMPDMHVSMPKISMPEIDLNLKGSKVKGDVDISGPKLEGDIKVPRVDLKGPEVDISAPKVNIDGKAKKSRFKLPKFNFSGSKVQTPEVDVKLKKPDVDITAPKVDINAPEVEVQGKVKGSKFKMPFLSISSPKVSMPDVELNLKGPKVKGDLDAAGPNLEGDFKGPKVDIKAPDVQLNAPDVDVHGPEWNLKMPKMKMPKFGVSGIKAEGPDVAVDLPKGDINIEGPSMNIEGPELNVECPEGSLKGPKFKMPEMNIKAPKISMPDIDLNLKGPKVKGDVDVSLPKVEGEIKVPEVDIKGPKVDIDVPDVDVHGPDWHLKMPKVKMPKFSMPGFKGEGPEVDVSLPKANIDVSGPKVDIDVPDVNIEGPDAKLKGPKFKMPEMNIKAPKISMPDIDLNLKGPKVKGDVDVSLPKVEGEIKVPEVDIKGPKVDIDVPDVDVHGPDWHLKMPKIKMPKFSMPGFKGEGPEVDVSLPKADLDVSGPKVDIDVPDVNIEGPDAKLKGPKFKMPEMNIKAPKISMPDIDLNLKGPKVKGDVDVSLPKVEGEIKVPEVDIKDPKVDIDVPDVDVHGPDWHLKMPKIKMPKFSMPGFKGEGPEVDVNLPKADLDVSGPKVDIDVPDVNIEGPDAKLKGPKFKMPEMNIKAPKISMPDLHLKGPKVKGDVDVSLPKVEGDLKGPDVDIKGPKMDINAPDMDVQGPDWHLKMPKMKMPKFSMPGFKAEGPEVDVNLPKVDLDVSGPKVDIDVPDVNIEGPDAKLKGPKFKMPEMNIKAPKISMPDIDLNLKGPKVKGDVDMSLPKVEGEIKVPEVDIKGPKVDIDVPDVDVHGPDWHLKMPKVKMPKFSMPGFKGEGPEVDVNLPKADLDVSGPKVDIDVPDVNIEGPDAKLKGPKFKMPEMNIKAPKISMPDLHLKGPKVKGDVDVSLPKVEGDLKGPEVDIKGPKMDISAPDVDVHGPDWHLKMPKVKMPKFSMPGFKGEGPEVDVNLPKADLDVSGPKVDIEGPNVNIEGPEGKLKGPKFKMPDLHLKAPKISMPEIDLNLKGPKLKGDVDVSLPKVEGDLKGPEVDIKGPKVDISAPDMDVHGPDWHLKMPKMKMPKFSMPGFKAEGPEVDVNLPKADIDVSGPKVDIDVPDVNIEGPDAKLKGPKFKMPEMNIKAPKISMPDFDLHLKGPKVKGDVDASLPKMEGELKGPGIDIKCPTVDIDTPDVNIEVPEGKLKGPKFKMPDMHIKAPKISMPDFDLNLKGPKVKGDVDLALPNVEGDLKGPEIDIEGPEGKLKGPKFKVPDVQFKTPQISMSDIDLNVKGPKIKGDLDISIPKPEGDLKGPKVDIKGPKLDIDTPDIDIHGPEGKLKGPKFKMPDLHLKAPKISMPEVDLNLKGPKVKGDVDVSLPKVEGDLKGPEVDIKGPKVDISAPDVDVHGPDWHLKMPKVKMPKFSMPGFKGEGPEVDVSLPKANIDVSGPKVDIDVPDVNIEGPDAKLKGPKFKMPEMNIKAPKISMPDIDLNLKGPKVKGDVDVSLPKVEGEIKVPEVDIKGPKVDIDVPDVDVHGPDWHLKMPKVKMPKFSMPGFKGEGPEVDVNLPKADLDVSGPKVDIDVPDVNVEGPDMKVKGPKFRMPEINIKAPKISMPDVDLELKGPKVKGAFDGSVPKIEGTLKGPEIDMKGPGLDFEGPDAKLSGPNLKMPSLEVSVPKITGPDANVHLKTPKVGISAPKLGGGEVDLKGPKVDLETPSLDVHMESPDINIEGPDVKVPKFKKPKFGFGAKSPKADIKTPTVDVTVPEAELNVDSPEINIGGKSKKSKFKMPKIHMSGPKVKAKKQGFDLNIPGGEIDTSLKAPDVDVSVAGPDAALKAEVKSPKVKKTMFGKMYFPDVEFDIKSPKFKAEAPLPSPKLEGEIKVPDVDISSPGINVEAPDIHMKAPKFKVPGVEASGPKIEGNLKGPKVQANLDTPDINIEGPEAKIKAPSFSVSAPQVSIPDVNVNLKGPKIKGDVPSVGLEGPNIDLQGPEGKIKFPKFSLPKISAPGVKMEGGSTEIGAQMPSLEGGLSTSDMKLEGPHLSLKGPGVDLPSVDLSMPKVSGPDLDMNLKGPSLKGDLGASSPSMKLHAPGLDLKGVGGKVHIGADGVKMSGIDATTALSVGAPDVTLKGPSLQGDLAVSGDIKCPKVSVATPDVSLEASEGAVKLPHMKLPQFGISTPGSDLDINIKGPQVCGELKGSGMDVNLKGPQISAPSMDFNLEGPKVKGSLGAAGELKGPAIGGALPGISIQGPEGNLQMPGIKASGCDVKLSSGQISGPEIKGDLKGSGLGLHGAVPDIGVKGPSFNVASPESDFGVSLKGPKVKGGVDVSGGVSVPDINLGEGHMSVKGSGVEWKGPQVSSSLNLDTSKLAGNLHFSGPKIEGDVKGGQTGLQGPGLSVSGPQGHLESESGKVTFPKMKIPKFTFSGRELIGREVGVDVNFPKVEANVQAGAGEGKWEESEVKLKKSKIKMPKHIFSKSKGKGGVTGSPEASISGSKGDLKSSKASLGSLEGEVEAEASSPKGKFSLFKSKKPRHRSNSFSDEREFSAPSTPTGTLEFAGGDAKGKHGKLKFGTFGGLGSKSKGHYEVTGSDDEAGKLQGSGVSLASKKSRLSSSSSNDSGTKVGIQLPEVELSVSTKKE

Results are given in words; binding and its absence hold for the method and conditions named. In cells and extracts the contact can be indirect. Some binding calls cover weakened binding; strength is not graded here.

The target of one test is SMAD1 (UniProt P70340). Briefly: proximity ligation; in situ Duolink PLA with AHNAK and SMAD1 probes; BMP4-treated and vehicle-control cells; nuclei stained with DAPI.
In the next test the target is HA-Smad1 (UniProt P70340). Briefly: co-IP; Flag-Ahnak and HA-Smad1 co-transfected into C3H10T1/2 cells, incubated without or with BMP4 for 60 min; lysates immunoprecipitated with anti-HA antibody at 4°C overnight, protein A/G agarose beads, washed three times with lysis buffer (1% Triton X-100, 20 mM HEPES pH 7.5, 150 mM NaCl, 10% glycerol, 5 mM EDTA); immunoblot.

As for AHNAK (from UniProt E9Q616 1-5656), the binding result with SMAD1 is listed as “binds”.

On to “Flag-Ahnak (N-terminal, amino-acid residues 1–150) (from UniProt E9Q616 1-150) (domain or fragment)”, for which the binding entry with HA-Smad1 is recorded as “binds”.
